Source: patent publication US20110053897A1 (IRM LLC, priority 2009, published 2011)
The structures given here were assigned with low confidence; some may be wrong.

Biological target: Syk kinase (Homo sapiens, UniProt P43405)
Assay: Syk kinase inhibition, Caliper LabChip off-chip mobility-shift kinase assay
Details: read-out: Syk Enzyme IC50
Protocol: Compounds of the examples and Table 1 provided herein were assayed to measure their capacity to inhibit Syk kinase.
Compounds of the examples and Table 1 provided herein were assessed for their ability to inhibit Syk kinase by utilizing Caliper Life Sciences' proprietary LabChip™ technology. The off-chip incubation mobility-shift kinase assay uses a microfluidic chip to measure the conversion of a fluorescent peptide substrate to a phosphorylated product. The reaction mixture, from a microtiter plate well, is introduced through a capillary sipper onto the chip, where the nonphosphorylated substrate and phosphorylated product are separated by electrophoresis and detected via laser induced fluorescence. […] The phosphorylated product migrates through the chip faster than the non-phosphorylated substrate, and signals from the two forms of the peptide appear as distinct peaks. Caliper's data analysis software (HTSWA) determines peak heights, from which the ratio of product to the peak sum P/(P+S) and percent (%) conversion is calculated. This value is used to compare compound wells to control wells present on the plate, and thereby determine the % inhibition values for the compound. […]

IC50: 218 nM
Structure (SMILES): CNS(=O)(=O)c1ccc(Nc2nc(Nc3cc(C)ccn3)cc3ccn(C)c(=O)c23)cc1 [compound 349]
